The other results are listed elsewhere or left out.
Experiments:
Experiment in all cases: glycan array binding signal (z-score within array); higher = stronger binding
Conditions in all cases: glycan notation: IUPAC condensed, linker removed; mutation: R276L
[1] = molecular target: GlcNAc(b1-3)Gal(b1-4)GlcNAc(b1-3)Gal(b1-4)GlcNAc(b1-2)Man(a1-3)[GlcNAc(b1-3)Gal(b1-4)GlcNAc(b1-3)Gal(b1-4)GlcNAc(b1-2)Man(a1-6)]Man(b1-4)GlcNAc(b1-4)GlcNAc
In short: (§1)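 Columns mapping to the same glycan were averaged after glycan names were converted to IUPAC-condensed notation. The data come from 3228 arrays in the Consortium for Functional Glycomics database, limited to those with an available protein sequence. Binding is reported as a within-array Z-score averaged across arrays of one protein sequence and across linkers.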

[2] = molecular target: GlcNAc(b1-3)Gal(b1-4)GlcNAc(b1-3)Gal(b1-4)GlcNAc(b1-2)Man(a1-3)[GlcNAc(b1-3)Gal(b1-4)GlcNAc(b1-3)Gal(b1-4)GlcNAc(b1-2)Man(a1-6)]Man(b1-4)GlcNAc(b1-4)[Fuc(a1-6)]GlcNAc
In short: as §1

[3] = molecular target: GlcNAc(b1-3)Gal(b1-4)GlcNAc(b1-3)Gal(b1-4)GlcNAc(b1-2)[GlcNAc(b1-3)Gal(b1-4)GlcNAc(b1-3)Gal(b1-4)GlcNAc(b1-6)]Man(a1-6)[GlcNAc(b1-3)Gal(b1-4)GlcNAc(b1-3)Gal(b1-4)GlcNAc(b1-2)Man(a1-3)]Man(b1-4)GlcNAc(b1-4)[Fuc(a1-6)]GlcNAc
In short: as §1

[4] = molecular target: GlcNAc(b1-3)Gal(b1-4)GlcNAc(b1-3)Gal(b1-4)GlcNAc(b1-3)Gal(b1-4)GlcNAc(b1-2)Man(a1-3)[GlcNAc(b1-3)Gal(b1-4)GlcNAc(b1-3)Gal(b1-4)GlcNAc(b1-3)Gal(b1-4)GlcNAc(b1-2)Man(a1-6)]Man(b1-4)GlcNAc(b1-4)GlcNAc
In short: as §1

[5] = molecular target: GlcNAc(b1-3)Gal(b1-4)GlcNAc(b1-3)Gal(b1-4)GlcNAc(b1-3)Gal(b1-4)GlcNAc(b1-2)Man(a1-3)[GlcNAc(b1-3)Gal(b1-4)GlcNAc(b1-3)Gal(b1-4)GlcNAc(b1-3)Gal(b1-4)GlcNAc(b1-2)Man(a1-6)]Man(b1-4)GlcNAc(b1-4)[Fuc(a1-6)]GlcNAc
In short: as §1

[6] = molecular target: GlcNAc(b1-3)Gal(b1-4)GlcNAc(b1-3)Gal(b1-4)GlcNAc(b1-3)Gal(b1-4)GlcNAc(b1-2)[GlcNAc(b1-3)Gal(b1-4)GlcNAc(b1-3)Gal(b1-4)GlcNAc(b1-3)Gal(b1-4)GlcNAc(b1-6)]Man(a1-6)[GlcNAc(b1-3)Gal(b1-4)GlcNAc(b1-3)Gal(b1-4)GlcNAc(b1-3)Gal(b1-4)GlcNAc(b1-2)Man(a1-3)]Man(b1-4)GlcNAc(b1-4)[Fuc(a1-6)]GlcNAc
In short: as §1

[7] = molecular target: GlcNAc(b1-3)Gal(b1-4)GlcNAc(b1-3)Gal(b1-4)GlcNAc(b1-3)Gal(b1-4)GlcNAc(b1-3)Gal(b1-4)GlcNAc(b1-2)Man(a1-3)[GlcNAc(b1-3)Gal(b1-4)GlcNAc(b1-3)Gal(b1-4)GlcNAc(b1-3)Gal(b1-4)GlcNAc(b1-3)Gal(b1-4)GlcNAc(b1-2)Man(a1-6)]Man(b1-4)GlcNAc(b1-4)GlcNAc
In short: as §1

[8] = molecular target: GlcNAc(b1-3)Gal(b1-4)GlcNAc(b1-3)Gal(b1-4)GlcNAc(b1-3)Gal(b1-4)GlcNAc(b1-3)Gal(b1-4)GlcNAc(b1-2)Man(a1-3)[GlcNAc(b1-3)Gal(b1-4)GlcNAc(b1-3)Gal(b1-4)GlcNAc(b1-3)Gal(b1-4)GlcNAc(b1-3)Gal(b1-4)GlcNAc(b1-2)Man(a1-6)]Man(b1-4)GlcNAc(b1-4)[Fuc(a1-6)]GlcNAc
In short: as §1

[9] = molecular target: GlcNAc(b1-3)Gal(b1-4)GlcNAc(b1-3)Gal(b1-4)GlcNAc(b1-3)Gal(b1-4)GlcNAc(b1-3)Gal(b1-4)GlcNAc(b1-2)[GlcNAc(b1-3)Gal(b1-4)GlcNAc(b1-3)Gal(b1-4)GlcNAc(b1-3)Gal(b1-4)GlcNAc(b1-3)Gal(b1-4)GlcNAc(b1-6)]Man(a1-6)[GlcNAc(b1-3)Gal(b1-4)GlcNAc(b1-3)Gal(b1-4)GlcNAc(b1-3)Gal(b1-4)GlcNAc(b1-3)Gal(b1-4)GlcNAc(b1-2)Man(a1-3)]Man(b1-4)GlcNAc(b1-4)[Fuc(a1-6)]GlcNAc
In short: as §1

[10] = molecular target: GlcNAc(b1-3)Gal(b1-4)GlcNAc(b1-3)Gal(b1-4)GlcNAc(b1-3)GalNAc
In short: as §1

[11] = molecular target: GlcNAc(b1-3)Gal(b1-4)GlcNAc(b1-3)GalNAc
In short: as §1

[12] = molecular target: GlcNAc(b1-3)Gal(b1-4)GlcNAc(b1-3)[GlcNAc(b1-3)Gal(b1-4)GlcNAc(b1-3)]GalNAc
In short: as §1

[13] = molecular target: GlcNAc(b1-3)Gal(b1-4)GlcNAc(b1-6)[Gal(b1-3)]GalNAc
In short: as §1

[14] = molecular target: GlcNAc(b1-3)Gal(b1-4)GlcNAc(b1-6)[GlcNAc(b1-3)Gal(b1-3)]GalNAc
In short: as §1

[15] = molecular target: GlcNAc(b1-3)Gal(b1-4)GlcNAc(b1-6)[GlcNAc(b1-3)]Gal(b1-4)GlcNAc
In short: as §1

[16] = molecular target: GlcNAc(b1-3)GalNAc
In short: as §1

[17] = molecular target: GlcNAc(b1-3)Man
In short: as §1

[18] = molecular target: GlcNAc(b1-3)[GlcNAc(b1-4)][GlcNAc(b1-6)]GlcNAc
In short: as §1

[19] = molecular target: GlcNAc(b1-3)[GlcNAc(b1-6)]Gal(b1-4)GlcNAc
In short: as §1

[20] = molecular target: GlcNAc(b1-3)[GlcNAc(b1-6)]GalNAc
In short: as §1

[21] = molecular target: GlcNAc(b1-4)Gal(b1-4)GlcNAc
In short: as §1

[22] = molecular target: GlcNAc(b1-4)GlcNAc
In short: as §1

[23] = molecular target: GlcNAc(b1-4)GlcNAc(b1-4)GlcNAc
In short: as §1

[24] = molecular target: GlcNAc(b1-4)GlcNAc(b1-4)GlcNAc(b1-4)GlcNAc(b1-4)GlcNAc
In short: as §1

[25] = molecular target: GlcNAc(b1-4)GlcNAc(b1-4)GlcNAc(b1-4)GlcNAc(b1-4)GlcNAc(b1-4)GlcNAc
In short: as §1

[26] = molecular target: GlcNAc(b1-4)[GlcNAc(b1-6)]GalNAc
In short: as §1

[27] = molecular target: GlcNAc(b1-6)Gal(b1-4)GlcNAc
In short: as §1

[28] = molecular target: GlcNAc(b1-6)GalNAc
In short: as §1

[29] = molecular target: GlcNAc6S(b1-3)Gal(b1-4)GlcNAc
In short: as §1

[30] = molecular target: Kdn(a2-3)Gal(b1-3)GalNAc
In short: as §1

[31] = molecular target: Kdn(a2-3)Gal(b1-3)GlcNAc
In short: as §1

[32] = molecular target: Kdn(a2-3)Gal(b1-4)Glc
In short: as §1

[33] = molecular target: Kdn(a2-3)Gal(b1-4)GlcNAc
In short: as §1

[34] = molecular target: Kdn(a2-3)Gal(b1-4)[Fuc(a1-3)]GlcNAc
In short: as §1

[35] = molecular target: Kdn(a2-6)Gal(b1-4)GlcNAc
In short: as §1

[36] = molecular target: Man(a1-2)Man(a1-2)Man(a1-3)Man
In short: as §1

[37] = molecular target: Man(a1-2)Man(a1-2)Man(a1-6)[Man(a1-3)]Man
In short: as §1

[38] = molecular target: Man(a1-2)Man(a1-3)Man
In short: as §1

B1: SUN4P (Saccharomyces cerevisiae), P53616 (protein)
chain: MGSSHHHHHHSSGLVPRGSHNGSIYGDLADFSGPYEKFEDGTIPCGQFPSGQGVIPISWLDEGGWSGVENTDTSTGGSCKEGSYCSYACQPGMSKTQWPSDQPSDGRSIGGLLCKDGYLYRSNTDTDYLCEWGVDAAYVVSELSNDVAICLTDYPGTENMVIPTYVQAGDSLPLTVVDQDTYYTWQGLKTSAQYYVNNAGISVEDACVWGSSSSGVGNWAPLNFGAGSSDGVAYLSLIPNPNNGNALNFNVKIVAADDSSTVNGECIYENGSFSGGSDGCTVSVTAGKAKFVLYN
glycan array binding signal (z-score) [1]: -0.112 | glycan array binding signal (z-score) [2]: 0.333 | glycan array binding signal (z-score) [3]: 1.06 | glycan array binding signal (z-score) [4]: -0.003 | glycan array binding signal (z-score) [5]: 0.347 | glycan array binding signal (z-score) [6]: 0.39 | glycan array binding signal (z-score) [7]: -2.18 | glycan array binding signal (z-score) [8]: 0.711 | glycan array binding signal (z-score) [9]: 0.715 | glycan array binding signal (z-score) [10]: 1.21 | glycan array binding signal (z-score) [11]: 2.14 | glycan array binding signal (z-score) [12]: -0.211 | glycan array binding signal (z-score) [13]: -0.523 | glycan array binding signal (z-score) [14]: -0.17 | glycan array binding signal (z-score) [15]: 0.018 | glycan array binding signal (z-score) [16]: -0.434 | glycan array binding signal (z-score) [17]: -0.832 | glycan array binding signal (z-score) [18]: -0.732 | glycan array binding signal (z-score) [19]: -0.185 | glycan array binding signal (z-score) [20]: -0.443 | glycan array binding signal (z-score) [21]: -0.801 | glycan array binding signal (z-score) [22]: -0.339 | glycan array binding signal (z-score) [23]: -1.86 | glycan array binding signal (z-score) [24]: -0.994 | glycan array binding signal (z-score) [25]: -1.01 | glycan array binding signal (z-score) [26]: -0.188 | glycan array binding signal (z-score) [27]: 0.112 | glycan array binding signal (z-score) [28]: -0.793 | glycan array binding signal (z-score) [29]: -0.042 | glycan array binding signal (z-score) [30]: -0.518 | glycan array binding signal (z-score) [31]: -0.443 | glycan array binding signal (z-score) [32]: -0.442 | glycan array binding signal (z-score) [33]: 0.403 | glycan array binding signal (z-score) [34]: -0.39 | glycan array binding signal (z-score) [35]: 1.11 | glycan array binding signal (z-score) [36]: -0.409 | glycan array binding signal (z-score) [37]: -0.472 | glycan array binding signal (z-score) [38]: 0.385
